These are yes or no findings as the source states them, for the method shown. In cells and extracts the contact can be indirect. Some entries that bind do so weakly or less than the wild type.
Target: N-cadherin (human (endogenous in primary CLL cells)) (UniProt P19022)
Test: co-IP; N-cadherin (Fig. 5b) or β-catenin immunoprecipitated from CLL lysates derived from mono-cultures or from co-cultures with EL08-1D2 cells; endogenous proteins

By UniProt entry, the sequences of proteins in these tests, tags left out. Residues count along the entry.
UniProt P19022, residues 160-906: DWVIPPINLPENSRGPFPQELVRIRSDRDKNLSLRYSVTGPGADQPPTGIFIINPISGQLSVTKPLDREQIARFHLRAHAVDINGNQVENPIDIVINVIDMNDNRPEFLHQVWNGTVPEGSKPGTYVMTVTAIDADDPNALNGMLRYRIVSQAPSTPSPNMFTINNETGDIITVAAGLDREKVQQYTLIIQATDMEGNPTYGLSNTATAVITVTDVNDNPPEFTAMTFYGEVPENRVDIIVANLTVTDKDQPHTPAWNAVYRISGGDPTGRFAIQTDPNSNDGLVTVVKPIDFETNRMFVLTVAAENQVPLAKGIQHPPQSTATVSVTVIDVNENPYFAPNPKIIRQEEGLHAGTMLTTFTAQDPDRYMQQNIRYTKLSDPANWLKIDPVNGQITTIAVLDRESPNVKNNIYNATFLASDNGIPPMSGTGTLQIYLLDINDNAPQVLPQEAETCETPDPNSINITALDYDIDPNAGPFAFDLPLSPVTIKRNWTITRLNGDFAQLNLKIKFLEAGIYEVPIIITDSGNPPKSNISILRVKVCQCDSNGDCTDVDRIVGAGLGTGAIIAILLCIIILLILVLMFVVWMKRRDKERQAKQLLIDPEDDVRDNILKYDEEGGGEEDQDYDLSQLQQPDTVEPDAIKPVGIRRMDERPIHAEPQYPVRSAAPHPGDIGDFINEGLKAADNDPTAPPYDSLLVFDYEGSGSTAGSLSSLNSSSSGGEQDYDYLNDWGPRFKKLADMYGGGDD
UniProt P35222: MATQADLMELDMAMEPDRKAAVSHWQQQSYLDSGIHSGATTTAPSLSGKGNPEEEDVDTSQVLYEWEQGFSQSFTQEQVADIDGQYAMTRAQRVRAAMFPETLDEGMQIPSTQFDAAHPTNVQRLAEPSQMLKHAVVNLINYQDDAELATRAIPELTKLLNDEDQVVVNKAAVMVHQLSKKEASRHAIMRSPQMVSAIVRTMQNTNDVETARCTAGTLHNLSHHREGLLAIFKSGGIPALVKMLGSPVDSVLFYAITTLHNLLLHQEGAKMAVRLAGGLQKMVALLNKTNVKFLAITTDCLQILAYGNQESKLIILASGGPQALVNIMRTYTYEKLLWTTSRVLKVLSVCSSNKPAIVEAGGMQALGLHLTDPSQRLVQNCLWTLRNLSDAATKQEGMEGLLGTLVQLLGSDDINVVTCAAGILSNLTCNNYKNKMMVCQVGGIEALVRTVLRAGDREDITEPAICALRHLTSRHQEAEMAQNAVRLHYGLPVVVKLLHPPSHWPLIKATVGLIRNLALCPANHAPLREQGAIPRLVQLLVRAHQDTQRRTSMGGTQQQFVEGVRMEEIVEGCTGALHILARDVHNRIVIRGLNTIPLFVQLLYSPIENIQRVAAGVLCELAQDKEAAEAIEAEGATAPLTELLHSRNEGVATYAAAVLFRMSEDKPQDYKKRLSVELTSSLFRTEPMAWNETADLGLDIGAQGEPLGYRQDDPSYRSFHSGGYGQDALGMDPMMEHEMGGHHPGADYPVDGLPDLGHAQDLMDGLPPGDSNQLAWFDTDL

binding: binds
Substance: β-catenin (from UniProt P35222 1-781)
